These are yes or no findings as the source states them, for the method shown. Binding seen in cells or lysates may run through a third protein. Some results given as binding are weak or reduced against the parent protein; the word gives no strength.

Amino acid sequences for entries named in this document (tags omitted).
UniProt P09086: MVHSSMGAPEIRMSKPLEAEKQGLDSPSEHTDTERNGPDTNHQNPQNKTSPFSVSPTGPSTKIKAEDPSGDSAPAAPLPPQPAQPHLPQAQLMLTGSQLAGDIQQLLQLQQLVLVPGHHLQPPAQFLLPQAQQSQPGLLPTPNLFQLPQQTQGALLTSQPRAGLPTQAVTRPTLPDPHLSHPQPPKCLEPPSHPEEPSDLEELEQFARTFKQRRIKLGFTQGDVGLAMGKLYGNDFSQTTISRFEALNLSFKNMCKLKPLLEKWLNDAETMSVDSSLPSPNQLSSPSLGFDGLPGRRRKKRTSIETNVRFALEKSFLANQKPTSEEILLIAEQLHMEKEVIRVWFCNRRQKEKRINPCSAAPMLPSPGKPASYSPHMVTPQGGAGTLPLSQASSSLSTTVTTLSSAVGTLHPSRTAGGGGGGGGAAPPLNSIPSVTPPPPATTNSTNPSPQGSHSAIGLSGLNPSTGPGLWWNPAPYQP
UniProt Q13950: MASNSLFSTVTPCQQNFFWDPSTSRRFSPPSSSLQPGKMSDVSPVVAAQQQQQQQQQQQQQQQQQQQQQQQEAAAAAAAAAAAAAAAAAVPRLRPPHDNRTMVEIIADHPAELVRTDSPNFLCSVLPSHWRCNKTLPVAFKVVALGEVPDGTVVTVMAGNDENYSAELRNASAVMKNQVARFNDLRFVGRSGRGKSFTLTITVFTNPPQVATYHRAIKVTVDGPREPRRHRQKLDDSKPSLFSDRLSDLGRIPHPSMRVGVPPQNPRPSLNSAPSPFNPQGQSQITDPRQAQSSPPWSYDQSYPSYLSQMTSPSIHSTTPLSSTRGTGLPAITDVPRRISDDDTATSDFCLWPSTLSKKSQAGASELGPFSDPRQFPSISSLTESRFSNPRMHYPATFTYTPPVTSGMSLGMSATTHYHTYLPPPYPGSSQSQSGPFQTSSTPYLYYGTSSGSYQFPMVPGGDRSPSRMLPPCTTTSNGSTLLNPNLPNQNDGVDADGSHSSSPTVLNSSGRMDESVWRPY
UniProt Q01196: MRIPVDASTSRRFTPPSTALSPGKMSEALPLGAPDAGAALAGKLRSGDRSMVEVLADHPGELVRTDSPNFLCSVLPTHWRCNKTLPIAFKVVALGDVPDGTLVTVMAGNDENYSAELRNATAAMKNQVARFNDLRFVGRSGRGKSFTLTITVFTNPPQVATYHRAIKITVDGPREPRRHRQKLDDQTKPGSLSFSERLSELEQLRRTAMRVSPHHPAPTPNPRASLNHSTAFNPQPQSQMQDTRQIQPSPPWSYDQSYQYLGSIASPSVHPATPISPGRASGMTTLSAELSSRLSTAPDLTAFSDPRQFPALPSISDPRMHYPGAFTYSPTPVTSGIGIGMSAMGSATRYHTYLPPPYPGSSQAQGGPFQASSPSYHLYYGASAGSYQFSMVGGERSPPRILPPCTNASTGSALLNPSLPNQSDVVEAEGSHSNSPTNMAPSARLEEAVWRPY

From publication PMC12140331 come the findings set out here.

This test concerns the target POU class 2 homeobox 2 (POU2F2) (human (endogenous in U266 and OPM-2)) (UniProt P09086). In words: co-IP; U266 and OPM-2 cell lysates incubated overnight at 4 °C with 5 µg anti-POU2F2 (sc-377475X) or mouse IgG, protein A/G magnetic beads 2 h, four PBST washes, western blot for POU2F2, RUNX1, RUNX2, histone H3.

For RUNX2 (from UniProt Q13950 1-521), the binding result is “binds”.
The result for RUNX1 (from UniProt Q01196 1-453) reads “binds”.
